Positions count from the first letter of the chain named. These are yes or no findings as the source states them, for the method shown. For some assays here: In cells and extracts the contact can be indirect. Some results given as binding are weak or reduced against the parent protein; the word gives no strength.
How the values were obtained:
HA-mCherry-Raptor [1] = target: HA-mCherry-Raptor (UniProt Q8N122); assay: co-IP from HEK293 lysates, immunoblot
[2] = target: HA-GST-Rheb (WT) loaded with GDP (UniProt Q15382); assay: summary sentence of Example 1 (pull-down with nucleotide-loaded Rheb)
[3] = target: HA-GST-Rheb (WT) loaded with GDP (UniProt Q15382); assay: pull-down: HA-GST-Rheb on glutathione beads loaded with GDP, tdTomato-CIB2 lysate added, immunoblot
[4] = target: HA-GST-Rheb (WT) loaded with GDP (UniProt Q15382); assay: pull-down: HA-GST-Rheb on GST beads loaded with GDP, incubated with tdTomato-CIB2 lysate, immunoblot
[5] = target: HA-GST-Rheb (WT) loaded with GTPγS (UniProt Q15382); assay: pull-down: HA-GST-Rheb on glutathione beads loaded with GTPγS, tdTomato-CIB2 lysate added, immunoblot
[6] = target: HA-GST-Rheb (WT) loaded with GTPγS (UniProt Q15382); assay: pull-down: HA-GST-Rheb on GST beads loaded with GTPγS, incubated with tdTomato-CIB2 lysate, immunoblot
HA-mCherry-Raptor [7] = target: HA-mCherry-Raptor (UniProt Q8N122); assay: summary sentence of Example 1 (NanoSPD and co-IP)
HA-mCherry-Raptor [8] = target: HA-mCherry-Raptor (UniProt Q8N122); assay: NanoSPD (nanoTRAP) filopodia co-accumulation in COS-7 cells

Amino acid sequences for entries named in this document (tags omitted).
UniProt Q8N122: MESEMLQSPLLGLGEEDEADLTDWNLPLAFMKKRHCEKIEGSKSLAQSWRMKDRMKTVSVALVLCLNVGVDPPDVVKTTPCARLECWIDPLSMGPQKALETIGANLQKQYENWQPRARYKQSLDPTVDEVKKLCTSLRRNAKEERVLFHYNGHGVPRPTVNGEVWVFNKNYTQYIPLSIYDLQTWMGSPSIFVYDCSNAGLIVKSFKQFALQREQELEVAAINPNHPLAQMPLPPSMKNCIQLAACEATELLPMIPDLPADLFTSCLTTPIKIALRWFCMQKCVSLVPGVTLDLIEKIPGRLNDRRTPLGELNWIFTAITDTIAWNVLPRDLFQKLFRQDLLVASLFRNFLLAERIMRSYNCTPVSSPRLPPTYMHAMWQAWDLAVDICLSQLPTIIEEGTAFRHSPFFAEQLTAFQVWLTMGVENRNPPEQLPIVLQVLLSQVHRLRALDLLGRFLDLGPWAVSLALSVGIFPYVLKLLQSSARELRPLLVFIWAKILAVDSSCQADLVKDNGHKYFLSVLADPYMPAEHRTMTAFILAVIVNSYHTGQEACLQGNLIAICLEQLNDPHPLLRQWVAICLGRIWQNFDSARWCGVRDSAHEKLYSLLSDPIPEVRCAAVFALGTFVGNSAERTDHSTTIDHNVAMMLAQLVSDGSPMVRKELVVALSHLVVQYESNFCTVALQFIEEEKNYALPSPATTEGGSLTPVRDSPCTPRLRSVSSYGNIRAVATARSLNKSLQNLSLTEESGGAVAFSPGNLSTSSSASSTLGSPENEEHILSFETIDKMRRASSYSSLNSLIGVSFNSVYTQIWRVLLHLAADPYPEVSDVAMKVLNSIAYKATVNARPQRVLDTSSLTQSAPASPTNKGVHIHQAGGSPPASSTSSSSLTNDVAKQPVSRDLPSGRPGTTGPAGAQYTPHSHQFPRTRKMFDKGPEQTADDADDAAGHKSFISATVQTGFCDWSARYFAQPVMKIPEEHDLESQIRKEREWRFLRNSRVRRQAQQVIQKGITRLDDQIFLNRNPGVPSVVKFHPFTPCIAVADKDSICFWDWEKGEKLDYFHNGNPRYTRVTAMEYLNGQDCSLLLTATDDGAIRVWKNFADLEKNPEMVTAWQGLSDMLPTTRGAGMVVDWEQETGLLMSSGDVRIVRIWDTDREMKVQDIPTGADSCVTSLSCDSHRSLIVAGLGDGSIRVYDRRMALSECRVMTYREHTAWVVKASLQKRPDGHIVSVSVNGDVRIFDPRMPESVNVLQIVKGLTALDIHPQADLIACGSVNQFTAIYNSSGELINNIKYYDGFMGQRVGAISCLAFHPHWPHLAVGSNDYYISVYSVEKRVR

Measured: binding

B1: tdTomato-CIB2 (protein, not shown: large carriers)
chain: MGNKQTIFTEEQLDNYQDCTFFNKKDILKLHARFYELAPNLVPMDYRKSPIVHVPMSLIIQMPELRENPFKERIVEAFSEDGEGNLTFNDFVDMFSVLCESAPRELKANYAFKIYDFNTDNFICKEDLEMTLARLTKSELEEDEVVLVCDKVIEEADLDGDGKLGFADFEDMIAKAPDFLSTFHIRI
not listed: HA-mCherry-Raptor [7] | HA-mCherry-Raptor [8]
binds: all other assays above

B2: CIB2-eGFP (other)
chain: B1 chain with A32S, E76A, M130L, E141D, D143E
notes: Expressed in COS-7 cells as bait of the NanoSPD (nanoTRAP) assay; also called hCIB2-eGFP; GFP-hCIB2; not shown: eGFP tag
binds: HA-mCherry-Raptor [7] | HA-mCherry-Raptor [8]

— patent US20210290727A1 (UNIVERSITY OF MARYLAND BALTIMORE, published 2021)
